{"source": "PubChem BioAssay AID1508588 (Peter MacCallum Cancer Centre, 2020)", "screen": "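Genome-wide search for knock-downs that heighten vemurafenib action in melanoma cells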 (primary screen)", "cells": "human WM266.4 melanoma cells (BRAF V600 mutant)", "reagent": "siRNA pool against human genes, 40 nM", "time to read-out": "96 h from transfection to read-out", "challenge": "vemurafenib 300 nM (about IC25), added 48 h after transfection, for 48 h; comparison arm got DMSO vehicle only", "measurement": "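Ratios to non-targeting siRNA for cell gain, counted as DAPI nuclei after minus before drug and averaged over two replicates, and for absorbance-read medium lactate per cell; both binned into fold-change classes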", "direction": "cell gain with vemurafenib: higher = more cell gain than with non-targeting siRNA; lactate per cell with vemurafenib: higher = more lactate made per cell", "rule for the call": "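a knock-down counts as enhancing when its fold-change classes with vehicle and with vemurafenib, taken together, show a stronger drug effect on cell gain or lactate per cell; exact class pairs not stated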", "meaning of the calls": "active = enhances vemurafenib effect; inactive = no enhancement seen", "note": "The whole screen tested about 18,000 reagents; shown is a random part of them. 790 of all reagents (4.4%) count as active. 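Calls rest on a combination of fold-change classes in drug and vehicle arms, not all shown here.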"}
{"Gene":"GOLGA8B (golgin A8 family member B)","cell gain with vemurafenib":0.91,"lactate per cell with vemurafenib":0.88,"activity call":"inactive"}
{"Gene":"POU6F2 (POU class 6 homeobox 2)","cell gain with vemurafenib":0.52,"lactate per cell with vemurafenib":1.46,"activity call":"inactive"}
{"Gene":"ZNF510 (zinc finger protein 510)","cell gain with vemurafenib":0.28,"lactate per cell with vemurafenib":1.1,"activity call":"inactive"}
{"Gene":"BZW1 (basic leucine zipper and W2 domains 1)","cell gain with vemurafenib":0.01,"lactate per cell with vemurafenib":1.5,"activity call":"inactive"}
{"Gene":"PROCR (protein C receptor)","cell gain with vemurafenib":0.61,"lactate per cell with vemurafenib":0.5,"activity call":"inactive"}
{"Gene":"NTF4 (neurotrophin 4)","cell gain with vemurafenib":0.48,"lactate per cell with vemurafenib":1.4,"activity call":"inactive"}
{"Gene":"FAF1 (Fas associated factor 1)","cell gain with vemurafenib":0.77,"lactate per cell with vemurafenib":0.68,"activity call":"inactive"}
{"Gene":"BTBD6 (BTB domain containing 6)","cell gain with vemurafenib":0.57,"lactate per cell with vemurafenib":0.54,"activity call":"inactive"}
{"Gene":"CRCT1 (cysteine rich C-terminal 1)","cell gain with vemurafenib":0.34,"lactate per cell with vemurafenib":0.96,"activity call":"inactive"}
{"Gene":"SCAMP5","cell gain with vemurafenib":0.78,"lactate per cell with vemurafenib":0.72,"activity call":"inactive"}
{"Gene":"MYO16 (myosin XVI)","cell gain with vemurafenib":0.52,"lactate per cell with vemurafenib":1.92,"activity call":"inactive"}
{"Gene":"KCNK6 (potassium two pore domain channel subfamily K member 6)","cell gain with vemurafenib":0.5,"lactate per cell with vemurafenib":0.42,"activity call":"active"}
{"Gene":"MBOAT2 (membrane bound glycerophospholipid O-acyltransferase 2)","cell gain with vemurafenib":0.91,"lactate per cell with vemurafenib":0.79,"activity call":"inactive"}
{"Gene":"STK10 (serine/threonine kinase 10)","cell gain with vemurafenib":0.74,"lactate per cell with vemurafenib":0.42,"activity call":"inactive"}
{"Gene":"PPT2 (palmitoyl-protein thioesterase 2)","cell gain with vemurafenib":0.57,"lactate per cell with vemurafenib":1,"activity call":"inactive"}
{"Gene":"MRPS31 (mitochondrial ribosomal protein S31)","cell gain with vemurafenib":1.13,"lactate per cell with vemurafenib":0.82,"activity call":"inactive"}
{"Gene":"BAZ1B (bromodomain adjacent to zinc finger domain 1B)","cell gain with vemurafenib":0.84,"lactate per cell with vemurafenib":1.12,"activity call":"inactive"}
{"Gene":"RER1 (retention in endoplasmic reticulum sorting receptor 1)","cell gain with vemurafenib":0.52,"lactate per cell with vemurafenib":0.88,"activity call":"inactive"}
{"Gene":"KLHL13 (kelch like family member 13)","cell gain with vemurafenib":0.78,"lactate per cell with vemurafenib":0.72,"activity call":"inactive"}
{"Gene":"TNRC6B (trinucleotide repeat containing adaptor 6B)","cell gain with vemurafenib":0.66,"lactate per cell with vemurafenib":1.14,"activity call":"inactive"}
{"Gene":"ULBP2 (UL16 binding protein 2)","cell gain with vemurafenib":0.56,"lactate per cell with vemurafenib":1.62,"activity call":"inactive"}
{"Gene":"VWA7 (von Willebrand factor A domain containing 7)","cell gain with vemurafenib":0.23,"lactate per cell with vemurafenib":2.42,"activity call":"inactive"}
{"Gene":"CSNK2B (casein kinase 2 beta)","cell gain with vemurafenib":0.26,"lactate per cell with vemurafenib":0.83,"activity call":"inactive"}
{"Gene":"BDH1 (3-hydroxybutyrate dehydrogenase 1)","cell gain with vemurafenib":1,"lactate per cell with vemurafenib":0.5,"activity call":"inactive"}
{"Gene":"ZNF518A (zinc finger protein 518A)","cell gain with vemurafenib":0.43,"lactate per cell with vemurafenib":1.7,"activity call":"inactive"}
{"Gene":"BAAT (bile acid-CoA:amino acid N-acyltransferase)","cell gain with vemurafenib":0.81,"lactate per cell with vemurafenib":0.5,"activity call":"inactive"}
{"Gene":"TMEM182 (transmembrane protein 182)","cell gain with vemurafenib":0.88,"lactate per cell with vemurafenib":0.96,"activity call":"inactive"}

Limited to “cell gain with vemurafenib”, for 2 of the entries above:
MYO16 (myosin XVI) = 0.52
KCNK6 (potassium two pore domain channel subfamily K member 6) = 0.5
